PubChem BioAssay AID504467 (National Center for Advancing Translational Sciences (NCATS), 2011)
Hit rate of the full screen: of about 330,000 compounds, about 7,700 (2.3%) were called active. This list was built around the results that the source calls inconclusive (neither active nor inactive); the mix of calls is not that of the screen. Calls come from the whole dose curve; as a rule, active = well fitted inhibition curve with a large enough effect; inconclusive = small, poorly fitted or top-dose-only effect, or effect the other way; inactive = flat fitted curve, though single readings scatter. A potency beside an inconclusive call is a rough fit, not a confirmed value.

Experiment: qHTS screen for small molecules that inhibit ELG1-dependent DNA repair in human embryonic kidney (HEK293T) cells expressing luciferase-tagged ELG1; note: nearly all actives have a fitted effect of over 55% in size
Conditions: HEK293T ELG1-luciferase reporter, luminescence, 16 h, DNA damage induced by 5-fluorouridine; activity change, negative = inhibition: at 46.1 µM (top of the series)
Outline: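 DMSO vehicle served as the neutral condition. Each well held 2,000 cells given 5-fluorouridine plus compound; after 16 hr at 37 °C/5% CO2, ONE-Glo was added and luciferase measured 30 min later.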
% is set by controls: 0 for no effect and ±100 for the full control effect; potency is the fitted concentration of half-maximal effect.

Row | Compound | activity change, negative = inhibition | Potency
1 | CCOC(=O)CCCn1nc(C)n2c(cc3sccc32)c1=O | inactive: 12.1% | 
2 | Oc1ccccc1-c1nnc(SCCN2CCOCC2)n1Cc1ccccc1 |  | inconclusive: 29.1 µM [activator, single point]
3 | CCc1nnc(NC(=O)CSc2nc3cccnc3n2Cc2ccccc2)s1 | inactive: -37.9% | 
4 | COc1ccc(C2=NOC(Cn3nc(C(=O)NCc4ccco4)cc3-c3ccccc3)C2)cc1 (stereo not drawn) |  | inconclusive: 14.1 µM [inhibitor, single point]
5 | COc1ccc(N2C(=O)c3ccccc3S2(=O)=O)cc1 |  | inconclusive: 20.6 µM [activator, partial curve, poor fit]
6 | COc1ccc(CCCc2nnc(SCC(=O)Nc3nc(C)cs3)n2C)cc1C |  | inconclusive: 7.31 µM [inhibitor, partial curve, poor fit]
7 | Cc1cc(-c2ccccc2)nc2oc3c(c12)NC(=O)CN(c1ccccc1)C3=O | inactive: -9.91% | 
8 | COc1cc(/C=N/NS(=O)(=O)c2ccc(C)cc2)ccc1OCc1cccc(C(=O)O)c1 |  | inconclusive: 2.06 µM [activator, partial curve]
9 | Cc1cc(C)cc(NC(=O)CN2C(=O)C3CC=CCC3C2=O)c1 (stereo not drawn) | inactive: 12.3% | 
10 | Cc1oc(-c2ccccc2Cl)nc1CSCC(=O)N1CCCC1 | inactive: 19.1% | 
11 | COc1ccc(C(CNC(=O)c2ccco2)N2CCCC2)cc1 (stereo not drawn) |  | inconclusive: 11.2 µM [activator, partial curve]
12 | C=CCn1c(=O)c(C(=O)Nc2ccc(C)cn2)c(O)c2ccccc21 |  | inconclusive: 16.4 µM [activator, partial curve, poor fit]
13 | N#C/C(=C\c1c(N2CCOCC2)nc2ccccn2c1=O)C(=O)NC1CCS(=O)(=O)C1 (stereo not drawn) |  | inconclusive: 29.1 µM [inhibitor, single point]
14 | CCCc1nc(NCc2ccncc2)c2nnn(Cc3ccccc3F)c2n1 |  | inconclusive: 20.6 µM [inhibitor, single point]
15 | COc1ccc(-c2coc3cc(OC(C)=O)c(OC)cc3c2=O)cc1 |  | inconclusive: 13 µM [activator, partial curve]
16 | CCCCN1C(=O)C(=O)N(CC(=O)N2N=C3/C(=C/c4ccco4)CCCC3C2c2ccco2)C1=O (stereo not drawn) |  | inconclusive: 29.1 µM [activator, single point]
17 | O=C(N/N=C/c1cccc(Br)c1)c1ccc(N2CCCC2=O)cc1 |  | inconclusive: 29.1 µM [inhibitor, single point]
18 | CCC(C(=O)NCc1ccco1)N(C(=O)CNS(=O)(=O)c1ccccc1)c1ccc(OC)cc1 (stereo not drawn) |  | inconclusive: 20.6 µM [activator, partial curve]
19 | Cc1ccc(NC(=O)CSC2=C(C#N)C(c3ccco3)C3=C(CCCC3=O)N2)cc1 (stereo not drawn) |  | inconclusive: 18.4 µM [inhibitor, partial curve]
20 | CCOc1ccc(Oc2c(/C=N/NC(=O)C3CC3)c(C)nn2-c2ccccc2)cc1 |  | inconclusive: 29.1 µM [inhibitor, single point]
21 | O=C(NC(Nc1ncc(S(=O)(=O)c2ccc([N+](=O)[O-])cc2)s1)(C(F)(F)F)C(F)(F)F)c1ccc(Cl)cc1 |  | inconclusive: 5.8 µM [inhibitor, full curve]
22 | Cc1cccc(-n2cc(CN3CCN(Cc4nccn4C)CC3)c(-c3cccc(F)c3)n2)c1 |  | active: 18.3 µM
23 | CCn1c(COc2ccccc2C)nnc1SCC(=O)N1CCC(C)CC1 |  | inconclusive: 18.4 µM [inhibitor, single point]

Reformatted with tabs: part of the list above.
Row	Compound	activity change, negative = inhibition	Potency
11	COc1ccc(C(CNC(=O)c2ccco2)N2CCCC2)cc1 (stereo not drawn)		inconclusive: 11.2 µM [activator, partial curve]
12	C=CCn1c(=O)c(C(=O)Nc2ccc(C)cn2)c(O)c2ccccc21		inconclusive: 16.4 µM [activator, partial curve, poor fit]

Later entries

Row | Compound | activity change, negative = inhibition | Potency
24 | O=C(/C=C/c1ccccc1Cl)Nc1cccc(S(=O)(=O)NC2=NCCCCC2)c1 | inactive: 20.6% | 
25 | CCOc1ccc(N(CC(=O)Nc2cc(OC)cc(OC)c2)S(=O)(=O)c2c(C)[nH]c(=O)[nH]c2=O)cc1 |  | inconclusive: 18.3 µM [activator, partial curve, poor fit]
26 | Cc1ccc(-c2cnc(NC(=O)c3cccc(Br)c3)s2)c(C)c1 | inactive: -16% | 
27 | Oc1ccc(/C=N/NC(=S)NC2CC3CCC2C3)cc1 (stereo not drawn) |  | inconclusive: 4.61 µM [activator, full curve]
28 | CSC1=NC2(C)CCCCC2C12C=CC(=O)C=C2 (stereo not drawn) |  | inconclusive: 25.9 µM [activator, single point]
29 | Nc1ccc(Oc2ccccc2F)nc1 |  | inconclusive: 0.651 µM [inhibitor, partial curve, poor fit]
30 | CCCCn1nnc(NC(=O)c2cc3ccccc3o2)n1 |  | inconclusive: 10.3 µM [activator, partial curve]
31 | O=C(c1cc(-c2ccccc2O)on1)N1CCc2ccccc2C1 |  | inconclusive: 18.4 µM [activator, single point]
32 | Oc1ccc(-c2nc3ccccc3s2)c(O)c1 |  | inconclusive: 9.2 µM [activator, partial curve]
33 | O=C(CSCc1ccc(Cl)cc1)Nc1ccc2c(c1)OCO2 | inactive: 13.1% | 
34 | COc1cc(NC(=S)NCc2ccco2)c(OC)cc1Cl |  | inconclusive: 25.9 µM [inhibitor, single point]
35 | COc1ccccc1N1CCN(C(=O)c2cc(N3C(=O)C4C5CCC(C5)C4C3=O)ccc2Cl)CC1 (stereo not drawn) |  | inconclusive: 29.1 µM [inhibitor, single point]
36 | O=C(Nc1ccc(C(=O)NCc2ccc(F)cc2)cc1)C1=CSCCO1 |  | inconclusive: 20.6 µM [activator, single point]
37 | O=C(Nc1ccc(C(=O)N2CCCCC2)cc1)C1=CSCCO1 |  | inconclusive: 9.2 µM [activator, partial curve]
38 | CC(=O)c1ccccc1OCC(O)CN1CCN(C(c2ccccc2)c2ccccc2)CC1 (stereo not drawn) |  | inconclusive: 29.1 µM [inhibitor, single point]
39 | Cc1ccc2nc(NC(=O)COC(=O)CSc3nc(C)cc(C)n3)sc2c1 |  | inconclusive: 9.2 µM [activator, single point]
40 | Cc1ccc(-n2c(C)cc(C3=NNC(=NC4CC4)SC3)c2C)cc1C |  | inconclusive: 7.31 µM [activator, partial curve]
41 | O=C(Nc1ccc(Cc2ccncc2)cc1)C1CCC(N2C(=O)C3CC=CCC3C2=O)CC1 (stereo not drawn) |  | inconclusive: 9.2 µM [inhibitor, single point]
42 | COc1ccccc1N1CCN(C(c2cc3cc(C)ccc3[nH]c2=O)c2nnnn2C2CCCC2)CC1 (stereo not drawn) |  | inconclusive: 23.1 µM [inhibitor, single point]
43 | O=C(CCl)N(c1ccc(Cl)cc1)c1c[nH]c2ccccc12 |  | active: 25.9 µM
44 | CCC1(c2ccc(Cl)cc2)NC(=O)N(CC(=O)NC2CCCCCC2)C1=O (stereo not drawn) | inactive: -15.6% | 
45 | O=C(CSc1nnc(-c2ccc(O)cc2)n1Cc1ccco1)c1ccccc1 |  | inconclusive: 16.4 µM [inhibitor, partial curve, poor fit]
46 | CC(=O)Nc1cnc(NC(=O)c2cccc(F)c2)cc1C |  | inconclusive: 5.17 µM [activator, partial curve]

Row | Compound | activity change, negative = inhibition | Potency
47 | O=C(NNC(=O)c1ccc(-c2ccccc2)cc1)c1ccccc1 |  | inconclusive: 9.2 µM [activator, partial curve]
48 | O=C(NC(=S)Nc1ccc(N2CCOCC2)cc1)c1ccco1 |  | inconclusive: 7.31 µM [activator, partial curve]
49 | COc1ccccc1-c1c(C#N)c(N)nc2c1CCC2 |  | inconclusive: 11.6 µM [activator, partial curve, poor fit]
50 | Cc1ccc2cc(CN(C(=O)c3ccco3)c3cccc(C)c3C)c(=O)[nH]c2c1 | inactive: -3% | 
51 | CC1CC(C)CN(CC(=O)Nc2ccc3c(c2)OCCO3)C1 (stereo not drawn) |  | inconclusive: 11.6 µM [activator, partial curve]
52 | FC(F)(F)c1cc(N2CCOCC2)nc(-c2ccccc2)n1 | inactive: 0.845% | 
53 | NS(=O)(=O)c1ccc(NC(=O)/C=C/c2ccco2)cc1 | inactive: 16.1% | 
54 | CN(Cc1ccc(F)cc1)C(=O)c1cccc(S(=O)(=O)N2CCN(c3ccccc3)CC2)c1 |  | active: 18.3 µM
55 | O=C(Nc1cccc(S(=O)(=O)NCc2ccco2)c1)c1cc(-c2ccc(F)cc2)nc2ccccc12 |  | active: 14.6 µM
56 | CN1C(=O)/C(=C\c2ccccc2)Sc2ccc(C(=O)N3CCN(c4ccccn4)CC3)cc21 | inactive: -23.4% | 
57 | CCCc1cc(=O)oc2cc(OCC(=O)NCCCN3CCCC3=O)ccc12 | inactive: 17.6% | 
58 | CC(=O)Nc1ccc(N=Nc2ccc(O)cc2)cc1 |  | inconclusive: 14.6 µM [activator, partial curve]
59 | CC(=O)N[C@@H](Cc1c[nH]c2ccccc12)C(=O)NCCc1ccc(S(N)(=O)=O)cc1 | inactive: 5.59% | 
60 | Fc1cccc(/C=N/Nc2ccc3ccccc3n2)c1 |  | inconclusive: 1.3 µM [activator, partial curve]
61 | Cc1cc(N2CCN(C)CC2)ccc1NC(=O)c1ccc(-c2ccc(Cl)cc2)o1 | inactive: -4.21% | 
62 | CCOc1cc(N2CCOCC2)c(OCC)cc1NC(C)C(=O)N1CCN(CC)CC1 (stereo not drawn) | inactive: -19.7% | 
63 | COc1ccc2ccccc2c1/C=N/NC(=S)NCCN1CCOCC1 |  | inconclusive: 23.1 µM [inhibitor, single point]
64 | COc1ccc(OCC(O)CNS(=O)(=O)c2cccs2)cc1 (stereo not drawn) | inactive: -1.56% | 
65 | COc1cc(/C=c2\s/c(=C(/C#N)C(=O)N3CCCC3)n(-c3ccccc3)c2=O)ccc1O |  | inconclusive: 6.51 µM [inhibitor, partial curve]
66 | Cc1ccc(CNC(=O)C(Cc2ccccc2)NS(=O)(=O)c2cccs2)cc1 (stereo not drawn) | inactive: 3.52% | 
67 | N#C/C(=C\c1ccco1)C(=O)NCc1ccccc1 |  | inconclusive: 32.6 µM [activator, partial curve, poor fit]
68 | CCN1/C(=C(\O)c2ccccc2)C(=O)c2ccccc2S1(=O)=O |  | inconclusive: 20.6 µM [inhibitor, partial curve, poor fit]

Part of the list above in order of length of the SMILES, low to high:
Row | Compound | activity change, negative = inhibition | Potency
28 | CSC1=NC2(C)CCCCC2C12C=CC(=O)C=C2 (stereo not drawn) |  | inconclusive: 25.9 µM [activator, single point]
13 | N#C/C(=C\c1c(N2CCOCC2)nc2ccccn2c1=O)C(=O)NC1CCS(=O)(=O)C1 (stereo not drawn) |  | inconclusive: 29.1 µM [inhibitor, single point]
56 | CN1C(=O)/C(=C\c2ccccc2)Sc2ccc(C(=O)N3CCN(c4ccccn4)CC3)cc21 | inactive: -23.4% | 
